Laboratory results from paper PMC10049986.
No constants are given. Whether binding was seen depends on the method and setting. In cells and extracts the contact can be indirect. Here binding means that the protein was enriched with, or labelled near, the bait; the list need not be complete. Sequences can lack the tags named with a protein.

Sequences of proteins named here, by UniProt entry; tags and fusion partners are left off.
UniProt Q9M2Z2: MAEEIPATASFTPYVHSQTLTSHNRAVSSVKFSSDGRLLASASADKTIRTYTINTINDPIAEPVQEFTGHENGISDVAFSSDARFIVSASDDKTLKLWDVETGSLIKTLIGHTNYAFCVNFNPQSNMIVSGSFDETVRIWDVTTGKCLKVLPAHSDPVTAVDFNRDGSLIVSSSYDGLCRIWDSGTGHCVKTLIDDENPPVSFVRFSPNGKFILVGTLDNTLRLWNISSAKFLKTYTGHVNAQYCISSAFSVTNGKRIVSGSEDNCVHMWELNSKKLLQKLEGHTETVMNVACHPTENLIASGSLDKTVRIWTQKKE

What was measured:
Assay in all cases: affinity purification with mass spectrometry; native and formaldehyde cross-linked IP-MS from floral buds of FLAG-TRB1, 2 and 3 lines with Col-0 as control; anti-FLAG M2 magnetic beads, 4 °C, 2 h; eluted with 3X FLAG peptides; results of the two formats are told together
[1] = biological target: T1, pTRB:TRB-FLAG TRB2 (Telomere Repeat Binding factor 2 with 3xFLAG) (Arabidopsis thaliana) (UniProt Q9FJW5)
T1 sequence: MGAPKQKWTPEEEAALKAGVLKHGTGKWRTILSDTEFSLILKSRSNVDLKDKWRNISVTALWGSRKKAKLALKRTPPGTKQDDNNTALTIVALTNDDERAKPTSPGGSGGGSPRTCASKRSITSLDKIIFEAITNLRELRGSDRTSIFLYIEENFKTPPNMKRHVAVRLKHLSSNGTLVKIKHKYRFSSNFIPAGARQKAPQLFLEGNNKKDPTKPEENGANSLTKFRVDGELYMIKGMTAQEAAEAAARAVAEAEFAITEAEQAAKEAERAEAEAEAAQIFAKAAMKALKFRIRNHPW

[2] = biological target: T2, pTRB:TRB-FLAG TRB1 (Telomere Repeat Binding factor 1 with 3xFLAG) (Arabidopsis thaliana) (UniProt Q8VWK4)
T2 sequence: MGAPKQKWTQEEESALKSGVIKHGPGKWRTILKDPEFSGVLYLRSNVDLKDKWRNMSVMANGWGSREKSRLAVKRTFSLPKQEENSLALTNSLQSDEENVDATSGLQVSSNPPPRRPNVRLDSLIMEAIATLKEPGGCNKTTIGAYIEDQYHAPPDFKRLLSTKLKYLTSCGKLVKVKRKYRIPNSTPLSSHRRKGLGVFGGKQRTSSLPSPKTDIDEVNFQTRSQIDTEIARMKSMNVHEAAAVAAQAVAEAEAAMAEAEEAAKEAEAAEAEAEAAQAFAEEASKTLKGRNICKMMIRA

[3] = biological target: T3, pTRB:TRB-FLAG TRB3 (Telomere Repeat Binding factor 3 with 3xFLAG) (Arabidopsis thaliana) (UniProt Q9M2X3)
T3 sequence: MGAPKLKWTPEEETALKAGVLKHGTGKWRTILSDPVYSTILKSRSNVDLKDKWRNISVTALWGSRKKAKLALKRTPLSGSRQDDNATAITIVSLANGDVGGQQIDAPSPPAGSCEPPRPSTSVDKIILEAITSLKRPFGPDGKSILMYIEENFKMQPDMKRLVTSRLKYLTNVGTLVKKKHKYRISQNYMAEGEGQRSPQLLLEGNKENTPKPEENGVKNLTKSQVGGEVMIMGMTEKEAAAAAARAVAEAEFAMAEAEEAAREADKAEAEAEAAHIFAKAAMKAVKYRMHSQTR

binding [1]: binds | binding [2]: binds | binding [3]: binds
Substance: WDR5A protein, endogenous (from UniProt Q9M2Z2 1-317)
